The record followed here is publication PMC11904993, “Humanized Candida and NanoBiT Assays Expedite Discovery of Bdf1 Bromodomain Inhibitors With Antifungal Potential” (Advanced Science, 2025).

One experiment deals with human Brd4 BD1 (Homo sapiens, UniProt O60885). Nature of the experiment: HTRF assay, inhibition of H4ac4 peptide binding. The following applies: Fig 1D/2A original data; single experiments Exp1-3. (TR-FRET usually uses a lanthanide donor and a delayed reading to cut background.)
In the next experiment the target is human Brd4 BD2 (Homo sapiens, UniProt O60885). In words: HTRF assay, inhibition of H4ac4 peptide binding. The following applies: Fig 1D/2A original data; single experiments Exp1-3.

SMILES strings stand for the structures. For part of its entries the source gives two or more results. The list is limited to them. There may be further records. The values listed for one entry differ for a reason that is not stated; they may come from other doses, times, organisms or constructs than stated.

For the compound `COc1cc2nc(C(=O)N3CCCCC3)cc(Nc3ccc(Br)cc3)c2cc1OC`, the “pIC50 hBrd4 BD1” value at human Brd4 BD1 is ≤ 4.4 and ≤ 4. The “pIC50 hBrd4 BD2” value at human Brd4 BD2 is listed as 4.662, ≤ 4.4, 4.852.

Consider `COc1cccc(NC(=O)Cn2ccc3ccc(-c4nnc(C)o4)cc32)c1`, for which the “pIC50 hBrd4 BD1” value at human Brd4 BD1 is ≤ 4.4 and 4.499.

For `Cn1nccc1C(=O)NCc1ccc(-c2nc(-c3cccs3)no2)s1` [Compound 63], the “pIC50 hBrd4 BD2” value at human Brd4 BD2 is ≤ 4 and 4.535.
